In the supplement of paper PMC3353916 one finds percent infected data, which are given here for eleven substances.

Single values of this set are uncertain.

The subject of the series is Sindbis virus TE/5'2J-GFP. In words: percent infected (GFP+ in RFP+ ISG-expressing cells); higher = more infection (less antiviral activity). The following applies: experiment: primary screen (single well).

“MQPWHGKAMQRASEAGATAPKASARNARGAPMDPTESPAAPEAALPKAGKFGPARKSGSRQKKSAPDTQERPPVRATGARAKKAPQRAQDTQPSDATSAPGAEGLEPPAAREPALSRAGSCRQRGARCSTKPRPPPGPWDVPSPGLPVSAPILVRRDAAPGASKLRAVLEKLKLSRDDISTAAGMVKGVVDHLLLRLKCDSAFRGVGLLNTGSYYEHVKISAPNEFDVMFKLEVPRIQLEEYSNTRAYYFVKFKRNPKENPLSQFLEGEILSASKMLSKFRKIIKEEINDIKDTDVIMKRKRGGSPAVTLLISEKISVDITLALESKSSWPASTQEGLRIQNWLSAKVRKQLRLKPFYLVPKHAKEGNGFQEETWRLSFSHIEKEILNNHGKSKTCCENKEEKCCRKDCLKLMKYLLEQLKERFKDKKHLDKFSSYHVKTAFFHVCTQNPQDSQWDRKDLGLCFDNCVTYFLQCLRTEKLENYFIPEFNLFSSNLIDKRSKEFLTKQIEYERNNEFPVFDEF [C6orf150]”: the percent infected runs as follows: (BHK/HA-Zeo (control)) 98.5%; (BHK/NZAP-Zeo (ZAP)) 96.6%.

Consider “MDDPDCDSTWEEDEEDAEDAEDEDCEDGEAAGARDADAGDEDEESEEPRAARPSSFQSRMTGSRNWRATRDMCRYRHNYPDLVERDCNGDTPNLSFYRNEIRFLPNGCFIEDILQNWTDNYDLLEDNHSYIQWLFPLREPGVNWHAKPLTLREVEVFKSSQEIQERLVRAYELMLGFYGIRLEDRGTGTVGRAQNYQKRFQNLNWRSHNNLRITRILKSLGELGLEHFQAPLVRFFLEETLVRRELPGVRQSALDYFMFAVRCRHQRRQLVHFAWEHFRPRCKFVWGPQDKLRRFKPSSLPHPLEGSRKVEEEGSPGDPDHEASTQGRTCGPEHSKGGGRVDEGPQPRSVEPQDAGPLERSQGDEAGGHGEDRPEPLSPKESKKRKLELSRREQPPTEPGPQSASEVEKIALNLEGCALSQGSLRTGTQEVGGQDPGEAVQPCRQPLGARVADKVRKRRKVDEGAGDSAAVASGGAQTLALAGSPAPSGHPKAGHSENGVEEDTEGRTGPKEGTPGSPSETPGPSPAGPAGDEPAESPSETPGPRPAGPAGDEPAESPSETPGPRPAGPAGDEPAESPSETPGPSPAGPTRDEPAESPSETPGPRPAGPAGDEPAESPSETPGPRPAGPAGDEPAESPSETPGPSPAGPTRDEPAKAGEAAELQDAEVESSAKSGKP [OGFR]”, for which the percent infected runs as follows: (BHK/HA-Zeo (control)) 98.5%; (BHK/NZAP-Zeo (ZAP)) 97.8%.

Consider “MQAKKRYFILLSAGSCLALLFYFGGLQFRASRSHSRREEHSGRNGLHHPSPDHFWPRFPDALRPFVPWDQLENEDSSVHISPRQKRDANSSIYKGKKCRMESCFDFTLCKKNGFKVYVYPQQKGEKIAESYQNILAAIEGSRFYTSDPSQACLFVLSLDTLDRDQLSPQYVHNLRSKVQSLHLWNNGRNHLIFNLYSGTWPDYTEDVGFDIGQAMLAKASISTENFRPNFDVSIPLFSKDHPRTGGERGFLKFNTIPPLRKYMLVFKGKRYLTGIGSDTRNALYHVHNGEDVVLLTTCKHGKDWQKHKDSRCDRDNTEYEKYDYREMLHNATFCLVPRGRRLGSFRFLEALQAACVPVMLSNGWELPFSEVINWNQAAVIGDERLLLQIPSTIRSIHQDKILALRQQTQFLWEAYFSSVEKIVLTTLEIIQDRIFKHISRNSLIWNKHPGGLFVLPQYSSYLGDFPYYYANLGLKPPSKFTAVIHAVTPLVSQSQPVLKLLVAAAKSQYCAQIIVLWNCDKPLPAKHRWPATAVPVVVIEGESKVMSSRFLPYDNIITDAVLSLDEDTVLSTTEVDFAFTVWQSFPERIVGYPARSHFWDNSKERWGYTSKWTNDYSMVLTGAAIYHKYYHYLYSHYLPASLKNMVDQLANCEDILMNFLVSAVTKLPPIKVTQKKQYKETMMGQTSRASRWADPDHFAQRQSCMNTFASWFGYMPLIHSQMRLDPVLFKDQVSILRKKYRDIERL [EXT1]”, for which the percent infected is, setting by setting: (BHK/HA-Zeo (control)) 97.9%; (BHK/NZAP-Zeo (ZAP)) 94.2%.

For “MKLCVTVLSLLMLVAAFCSPALSAPMGSDPPTACCFSYTARKLPRNFVVDYYETSSLCSQPAVVFQTKRSKQVCADPSESWVQEYVYDLELN [CCL4]”, the percent infected runs as follows: (BHK/HA-Zeo (control)) 96.1%; (BHK/NZAP-Zeo (ZAP)) 96%.

With “MDEKTKKAEEMALSLTRAVAGGDEQVAMKCAIWLAEQRVPLSVQLKPEVSPTQDIRLWVSVEDAQMHTVTIWLTVRPDMTVASLKDMVFLDYGFPPVLQQWVIGQRLARDQETLHSHGVRQNGDSAYLYLLSARNTSLNPQELQRERQLRMLEDLGFKDLTLQPRGPLEPGPPKPGVPQEPGRGQPDAVPEPPPVGWQCPGCTFINKPTRPGCEMCCRARPEAYQVPASYQPDEEERARLAGEEEALRQYQQRKQQQQEGNYLQHVQLDQRSLVLNTEPAECPVCYSVLAPGEAVVLRECLHTFCRECLQGTIRNSQEAEVSCPFIDNTYSCSGKLLEREIKALLTPEDYQRFLDLGISIAENRSAFSYHCKTPDCKGWCFFEDDVNEFTCPVCFHVNCLLCKAIHEQMNCKEYQEDLALRAQNDVAARQTTEMLKVMLQQGEAMRCPQCQIVVQKKDGCDWIRCTVCHTEICWVTKGPRWGPGGPGDTSGGCRCRVNGIPCHPSCQNCH [RBCK1]”, the percent infected was found to be 98.4% (BHK/HA-Zeo (control)) and 93.6% (BHK/NZAP-Zeo (ZAP)).

“MSEIRKDTLKAILLELECHFTWNLLKEDIDLFEVEDTIGQQLEFLTTKSRLALYNLLAYVKHLKGQNKDALECLEQAEEIIQQEHSDKEEVRSLVTWGNYAWVYYHMDQLEEAQKYTGKIGNVCKKLSSPSNYKLECPETDCEKGWALLKFGGKYYQKAKAAFEKALEVEPDNPEFNIGYAITVYRLDDSDREGSVKSFSLGPLRKAVTLNPDNSYIKVFLALKLQDVHAEAEGEKYIEEILDQISSQPYVLRYAAKFYRRKNSWNKALELLKKALEVTPTSSFLHHQMGLCYRAQMIQIKKATHNRPKGKDKLKVDELISSAIFHFKAAMERDSMFAFAYTDLANMYAEGGQYSNAEDIFRKALRLENITDDHKHQIHYHYGRFQEFHRKSENTAIHHYLEALKVKDRSPLRTKLTSALKKLSTKRLCHNALDVQSLSALGFVYKLEGEKRQAAEYYEKAQKIDPENAEFLTALCELRLSI [IFIT5]”: the percent infected worked out at 97.5% (BHK/HA-Zeo (control)) and 74.5% (BHK/NZAP-Zeo (ZAP)).

Turning to “MKMRFLGLVVCLVLWTLHSEGSGGKLTAVDPETNMNVSEIISYWGFPSEEYLVETEDGYILCLNRIPHGRKNHSDKGPKPVVFLQHGLLADSSNWVTNLANSSLGFILADAGFDVWMGNSRGNTWSRKHKTLSVSQDEFWAFSYDEMAKYDLPASINFILNKTGQEQVYYVGHSQGTTIGFIAFSQIPELAKRIKMFFALGPVASVAFCTSPMAKLGRLPDHLIKDLFGDKEFLPQSAFLKWLGTHVCTHVILKELCGNLCFLLCGFNERNLNMSRVDVYTTHSPAGTSVQNMLHWSQAVKFQKFQAFDWGSSAKNYFHYNQSYPPTYNVKDMLVPTAVWSGGHDWLADVYDVNILLTQITNLVFHESIPEWEHLDFIWGLDAPWRLYNKIINLMRKYQ [LIPA]”, the percent infected is 98.8% (BHK/HA-Zeo (control)) and 97.1% (BHK/NZAP-Zeo (ZAP)).

For the substance BTN3A3, the percent infected reads like this: (BHK/HA-Zeo (control)) 95.2%; (BHK/NZAP-Zeo (ZAP)) 74.3%.

Turning to “MCTKMEQPFYHDDSYTATGYGRAPGGLSLHDYKLLKPSLAVNLADPYRSLKAPGARGPGPEGGGGGSYFSGQGSDTGASLKLASSELERLIVPNSNGVITTTPTPPGQYFYPRGGGSGGGAGGAGGGVTEEQEGFADGFVKALDDLHKMNHVTPPNVSLGATGGPPAGPGGVYAGPEPPPVYTNLSSYSPASASSGGAGAAVGTGSSYPTTTISYLPHAPPFAGGHPAQLGLGRGASTFKEEPQTVPEARSRDATPPVSPINMEDQERIKVERKRLRNRLAATKCRKRKLERIARLEDKVKTLKAENAGLSSTAGLLREQVAQLKQKVMTHVSNGCQLLLGVKGHAF [JUNB]”, the percent infected (BHK/HA-Zeo (control)) stood at 98.2% and the percent infected (BHK/NZAP-Zeo (ZAP)) is 98.1%.

“MASPRASRWPPPLLLLLLPLLLLPPAAPGTRDPPPSPARRALSLAPLAGAGLELQLERRPEREPPPTPPRERRGPATPGPSYRAPEPGAATQRGPSGRAPRGGSADAAWKHWPESNTEAHVENITFYQNQEDFSTVSSKEGVMVQTSGKSHAASDAPENLTLLAETADARGRSGSSSRTNFTILPVGYSLEIATALTSQSGNLASESLHLPSSSSEFDERIAAFQTKSGTASEMGTERAMGLSEEWTVHSQEATTSAWSPSFLPALEMGELTTPSRKRNSSGPDLSWLHFYRTAASSPLLDLSSSSESTEKLNNSTGLQSSSVSQTKTMHVATVFTDGGPRTLRSLTVSLGPVSKTEGFPKDSRIATTSSSVLLSPSAVESRRNSRVTGNPGDEEFIEPSTENEFGLTSLRWQNDSPTFGEHQLASSSEVQNGSPMSQTETVSRSVAPMRGGEITAHWLLTNSTTSADVTGSSASYPEGVNASVLTQFSDSTVQSGGSHTALGDRSYSESSSTSSSESLNSSAPRGERSIAGISYGQVRGTAIEQRTSSDHTDHTYLSSTFTKGERALLSITDNSSSSDIVESSTSYIKISNSSHSEYSSFFHAQTERSNISSYDGEYAQPSTESPVLHTSNLPSYTPTINMPNTSVVLDTDAEFVSDSSSSSSSSSSSSSSGPPLPLPSVSQSHHLFSSILPSTRASVHLLKSTSDASTPWSSSPSPLPVSLTTSTSAPLSVSQTTLPQSSSTPVLPRARETPVTSFQTSTMTSFMTMLHSSQTADLKSQSTPHQEKVITESKSPSLVSLPTESTKAVTTNSPLPPSLTESSTEQTLPATSTNLAQMSPTFTTTILKTSQPLMTTPGTLSSTASLVTGPIAVQTTAGKQLSLTHPEILVPQISTEGGISTERNRVIVDATTGLIPLTSVPTSAKEMTTKLGVTAEYSPASRSLGTSPSPQTTVVSTAEDLAPKSATFAVQSSTQSPTTVSSSASVNSCAVNPCLHNGECVADNTSRGYHCRCPPSWQGDDCSVDVNECLSNPCPSTAMCNNTQGSFICKCPVGYQLEKGICNLVRTFVTEFKLKRTFLNTTVEKHSDLQEVENEITKTLNMCFSALPSYIRSTVHASRESNAVVISLQTTFSLASNVTLFDLADRMQKCVNSCKSSAEVCQLLGSQRRIFRAGSLCKRKSPECDKDTSICTDLDGVALCQCKSGYFQFNKMDHSCRACEDGYRLENETCMSCPFGLGGLNCGNPYQLITVVIAAAGGGLLLILGIALIVTCCRKNKNDISKLIFKSGDFQMSPYAEYPKNPRSQEWGREAIEMHENGSTKNLLQMTDVYYSPTSVRNPELERNGLYPAYTGLPGSRHSCIFPGQYNPSFISDESRRRDYF [HEG1]”: the percent infected is, setting by setting: (BHK/HA-Zeo (control)) 98.5%; (BHK/NZAP-Zeo (ZAP)) 96%.

In the case of “MEGSRPRSSLSLASSASTISSLSSLSPKKPTRAVNKIHAFGKRGNALRRDPNLPVHIRGWLHKQDSSGLRLWKRRWFVLSGHCLFYYKDSREESVLGSVLLPSYNIRPDGPGAPRGRRFTFTAEHPGMRTYVLAADTLEDLRGWLRALGRASRAEGDDYGQPRSPARPQPGEGPGGPGGPPEVSRGEEGRISESPEVTRLSRGRGRPRLLTPSPTTDLHSGLQMRRARSPDLFTPLSRPPSPLSLPRPRSAPARRPPAPSGDTAPPARPHTPLSRIDVRPPLDWGPQRQTLSRPPTPRRGPPSEAGGGKPPRSPQHWSQEPRTQAHSGSPTYLQLPPRPPGTRASMVLLPGPPLESTFHQSLETDTLLTKLCGQDRLLRRLQEEIDQKQEEKEQLEAALELTRQQLGQATREAGAPGRAWGRQRLLQDRLVSVRATLCHLTQERERVWDTYSGLEQELGTLRETLEYLLHLGSPQDRVSAQQQLWMVEDTLAGLGGPQKPPPHTEPDSPSPVLQGEESSERESLPESLELSSPRSPETDWGRPPGGDKDLASPHLGLGSPRVSRASSPEGRHLPSPQLGTKAPVARPRMSAQEQLERMRRNQECGRPFPRPTSPRLLTLGRTLSPARRQPDVEQRPVVGHSGAQKWLRSSGSWSSPRNTTPYLPTSEGHRERVLSLSQALATEASQWHRMMTGGNLDSQGDPLPGVPLPPSDPTRQETPPPRSPPVANSGSTGFSRRGSGRGGGPTPWGPAWDAGIAPPVLPQDEGAWPLRVTLLQSSF [PLEKHA4]”, the percent infected amounted to 97.7% (BHK/HA-Zeo (control)) and 90.1% (BHK/NZAP-Zeo (ZAP)).
